{"sequences": {"note": "Protein sequences, listed by entry. Tags and fused reporters are not part of them. Lines headed by an entry give the natural chain unless they say otherwise; changes in a name come on top.", "UniProt P08887": "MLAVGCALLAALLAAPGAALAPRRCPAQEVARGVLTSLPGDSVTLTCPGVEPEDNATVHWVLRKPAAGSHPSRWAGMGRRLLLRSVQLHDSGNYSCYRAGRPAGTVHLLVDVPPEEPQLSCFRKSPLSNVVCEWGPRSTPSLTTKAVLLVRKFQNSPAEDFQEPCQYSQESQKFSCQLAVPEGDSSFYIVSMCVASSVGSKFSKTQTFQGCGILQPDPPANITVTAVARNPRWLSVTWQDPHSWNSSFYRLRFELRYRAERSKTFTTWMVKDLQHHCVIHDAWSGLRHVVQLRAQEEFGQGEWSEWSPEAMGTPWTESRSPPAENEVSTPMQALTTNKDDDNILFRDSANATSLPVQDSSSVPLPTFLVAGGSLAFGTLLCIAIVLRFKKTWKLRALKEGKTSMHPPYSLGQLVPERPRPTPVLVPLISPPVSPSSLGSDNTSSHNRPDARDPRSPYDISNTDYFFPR", "UniProt P05231": "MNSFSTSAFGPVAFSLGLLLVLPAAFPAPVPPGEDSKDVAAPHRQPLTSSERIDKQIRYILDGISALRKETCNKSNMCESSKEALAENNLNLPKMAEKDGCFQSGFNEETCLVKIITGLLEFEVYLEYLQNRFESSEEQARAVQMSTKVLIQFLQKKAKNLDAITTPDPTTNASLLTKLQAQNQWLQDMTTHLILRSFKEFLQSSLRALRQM"}, "source": "patent US20060257407A1", "about": "(Janssen / Centocor, published 2006)", "binders": {"B1": {"name": "AME-22a (antibody, V domains shown)", "VH": "EVQLVESGGGLVQPGGSLRLSCAASGFQFSPFAMSWVRQAPGKGLEWVAKISPGGSWTYYPDTDTGRFTISRDNAKNSLYLQMNSLRAEDTAVYYCARQLWGYYALDFWGQGTTVTVSS", "VL": "EIVLTQSPATLSLSPGERATLSCSASYSVSYMYWYQQKPGQAPRLLIYDFSNLASGIPARFSGSGSGTDFTLTISSLEPEDFAVYYCMQWSGYPYTFGGGTKVEIK", "notes": "Tested as IgG; also called 150"}}, "key": {"IL-6/sIL-6R complex": {"biological_target": "T1, IL-6/sIL-6R complex (human, UniProt P08887 20-358, limits assumed)", "T1 construct": "Formed on the plate: sIL-6R coated at 10 ug/ml, then human IL-6 added at 200 ng/ml; also called sIL-6/sIL-6R complex; IL-6/IL-6R complex", "test": "EIA: sIL-6R coated, 200 ng/ml human IL-6, antibody dilutions from 10 ug/ml, anti-human IgG-HRP", "method": "Costar EIA plates (Corning/Costar, Acton, Mass.) (Catalog # 9018) were coated with sIL-6R (10 μg/ml in PBS, 100 μl/well) overnight at 4° C. The plates were washed with 0.15M saline containing 0.02% (v/v) Tween 20 and wells were blocked with 1% (w/v) BSA in PBS, 200 μl/well for one hour at room temperature. The wells were washed again then in the sequential format incubated with 200 ng/ml human IL-6 (100 μl/well) in PBS for one hour at room temperature. Antibody was added to all wells in 10-fold serial dilutions from a starting concentration of 10 μg/ml in 100 μl/well for one hour at room temperature. After washing, the wells were incubated with goat anti-human IgG (H+L)-HRP-linked, (10 μg/ml in PBS) for 30 minutes at room temperature. The wells were washed and 100 μl/well of citrate-phosphate substrates solution (0.1M Citric Acid and 0.2M Sodium Phosphate, 0.01% H₂O₂ and 1 mg/ml OPD) was added for 15 minutes at room temperature. The reaction was stopped by addition of 25 μl/well of 4N sulfuric acid and the OD₄₉₀ was read via an automated ELISA plate reader (Molecular Devices Spectromax Plus, Sunnyvale, Calif.).\nIn addition, AME-A9, AME-A16, AME-18a, AME-20b, AME-22a, and AME-23a can detect IL-6 bound to sgp80 (sIL-6R) in a dose dependent manner using EIA. […] However, preincubation of IL-6 and any of these anti hIL-6 monoclonal antibodies precludes the ability of sIL-6R to bind IL-6."}, "recombinant human IL-6": {"biological_target": "recombinant human IL-6 (human, UniProt P05231 30-212)", "test": "ELISA: IgG dilutions captured on goat anti-human kappa, biotinylated IL-6 at 200 ng/ml, NeutrAvidin-alkaline phosphatase, O.D. 560 after 15 min", "method": "The ELISA generally used Costar 3366 microtiter plates coated with a goat anti-human kappa antibody. Dilutions of Fab (or IgG) were incubated in the coated wells for 1 hr at 22° C. The wells were then washed with PBS, 0.1% Tween 20 and biotinylated IL-6 at 200 ng/ml was added for 1 hour. After washing, an alkaline phosphatase conjugate of NeutrAvidin was added and incubated for 1 hour at 22° C. A colorimetric substrate was added after extensive washing and the bound IL-6 was determined. A variation of this ELISA included an extended wash step in a beaker of PBS, 0.01% BSA at 37° C. after the biotinylated IL-6 incubation, e.g., an 18 hour extended wash step."}}, "note": "Results are given in words; binding and its absence hold for the method and conditions named. Some binding calls cover weakened binding; strength is not graded here.", "data": [{"binder": "B1", "values": [{"measurement": "binding", "setting": "IL-6/sIL-6R complex", "result": "binds"}, {"measurement": "binding", "setting": "recombinant human IL-6", "result": "binds"}]}]}
